# Patent US20070073060A1, “Tricycle indole hydroxyethlamine derivatives and their use in the treatment of alzheimer's disease” (priority 2003, published 2007)
# Chains of the proteins cited; added tags and fusions are not shown. Residues count along the entry.
# UniProt P07339, 65-412, species assumed: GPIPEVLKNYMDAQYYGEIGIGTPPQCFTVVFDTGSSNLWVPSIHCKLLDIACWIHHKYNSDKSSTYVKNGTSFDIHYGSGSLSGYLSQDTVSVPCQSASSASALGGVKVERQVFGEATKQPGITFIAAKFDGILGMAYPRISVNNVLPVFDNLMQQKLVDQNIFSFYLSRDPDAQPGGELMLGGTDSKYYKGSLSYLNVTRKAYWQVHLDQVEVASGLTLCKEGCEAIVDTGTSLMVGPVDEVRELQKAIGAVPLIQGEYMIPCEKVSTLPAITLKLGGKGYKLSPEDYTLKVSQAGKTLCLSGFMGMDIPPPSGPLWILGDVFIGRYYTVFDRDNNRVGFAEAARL
# UniProt P56817, 46-501: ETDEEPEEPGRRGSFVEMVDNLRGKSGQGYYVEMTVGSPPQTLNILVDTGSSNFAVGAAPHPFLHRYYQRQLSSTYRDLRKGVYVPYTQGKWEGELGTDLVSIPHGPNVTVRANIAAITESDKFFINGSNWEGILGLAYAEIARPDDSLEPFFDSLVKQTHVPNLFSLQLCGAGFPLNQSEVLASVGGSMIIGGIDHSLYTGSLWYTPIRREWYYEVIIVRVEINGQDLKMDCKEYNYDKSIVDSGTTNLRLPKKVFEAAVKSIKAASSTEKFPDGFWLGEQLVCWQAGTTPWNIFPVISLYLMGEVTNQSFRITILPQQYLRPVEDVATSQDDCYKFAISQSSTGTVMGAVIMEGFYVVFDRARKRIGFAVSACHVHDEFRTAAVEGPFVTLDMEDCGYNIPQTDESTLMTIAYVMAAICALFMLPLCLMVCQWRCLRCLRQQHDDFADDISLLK
# Some results were stated once for a whole list of compounds, not compound by compound.
# Columns and labels:
# Cathepsin D = Cathepsin D (Homo sapiens, UniProt P07339); experiment: Cathepsin D Inhibitory Assay; format: biochemical; details: Assay (II); FAM-SEVNLDAEFK-TAMRA substrate, pH 4.5, 1 h room temperature; range over all examples, units printed in the value (nM to >μM); read-out: inhibition (CatD)
# Asp2 = Asp2 (Homo sapiens, UniProt P56817); experiment: Asp-2 Inhibitory Assay; format: biochemical; details: Assay (I); FAM-SEVNLDAEFK-TAMRA substrate, pH 4.5, 1 h room temperature; range over all examples, units printed in the value (nM to μM)
smiles,measurement,setting,value
"CCn1cc2c3c(cc(C(=O)N[C@@H](Cc4ccccc4)[C@H](O)CNc4ccc(Cl)cc4)cc31)N(C)S(=O)(=O)CC2.O=CO [Example E65, Formic acid - N-[(1S, 2R)-3-[(4-Chlorophenyl)amino]-2-hydroxy-1-(phenylmethyl)propyl]-6-ethyl-1-methyl-1,3,4,6-tetrahydro[1,2]thiazepino[5,4,3-cd]indole-8-carboxamide 2,2-dioxide (1:1)]",IC50,Cathepsin D,≥ 30 nM
same,inhibition (Asp2),Asp2,2 nM-10 μM
CCn1cc2c3c(cc(C(=O)N[C@@H](Cc4ccccc4)[C@H](O)CNCCSC(C)(C)C)cc31)N(C)S(=O)(=O)CC2.O=CO [Example E52],IC50,Cathepsin D,≥ 30 nM
same,inhibition (Asp2),Asp2,2 nM-10 μM
"CCn1cc2c3c(cc(C(=O)N[C@@H](Cc4ccccc4)[C@H](O)CNCc4cccc(C(F)(F)F)c4)cc31)N(C)S(=O)(=O)CC2 [Example E24, Formic acid - 6-Ethyl-N-[(1S, 2R)-2-hydroxy-1-(phenylmethyl)-3-({[3-(trifluoromethyl)phenyl]methyl}amino)propyl]-1-methyl-1,3,4,6-tetrahydro[1,2]thiazepino[5,4,3-cd]indole-8-carboxamide 2,2-dioxide (1:1)]",IC50,Cathepsin D,≥ 30 nM
same,inhibition (Asp2),Asp2,2 nM-10 μM
"CCn1cc2c3c(cc(C(=O)N[C@@H](Cc4ccccc4)[C@H](O)CNCc4cccc(OC)c4)cc31)N(C)S(=O)(=O)CC2 [Example E3, 6-Ethyl-N-[(1S, 2R)-2-hydroxy-3-({[3-(methyloxy)phenyl]methyl}amino)-1-(phenylmethyl)propyl]-1-methyl-1,3,4,6-tetrahydro[1,2]thiazepino[5,4,3-cd]indole-8-carboxamide 2,2-dioxide]",IC50,Cathepsin D,≥ 30 nM
same,inhibition (Asp2),Asp2,2 nM-10 μM
"CCSCCNC[C@@H](O)[C@H](Cc1ccccc1)NC(=O)c1cc2c3c(cn(CC)c3c1)CCS(=O)(=O)N2C.O=CO [Example E22, Formic acid - 6-Ethyl-N-[(1S, 2R)-3-{[2-(ethylthio)ethyl]amino}-2-hydroxy-1-(phenylmethyl)propyl]-1-methyl-1,3,4,6-tetrahydro[1,2]thiazepino[5,4,3-cd]indole-8-carboxamide 2,2-dioxide (1:1)]",IC50,Cathepsin D,≥ 30 nM
same,inhibition (Asp2),Asp2,2 nM-10 μM
"C#CC1(NC[C@@H](O)[C@H](Cc2ccccc2)NC(=O)c2cc3c4c(cn(CC)c4c2)CCS(=O)(=O)N3C)CCCCC1.O=CO [Example E47, Formic acid - 6-Ethyl-N-[(1S, 2R)-3-[(1-ethynylcyclohexyl)amino]-2-hydroxy-1-(phenylmethyl)propyl]-1-methyl-1,3,4,6-tetrahydro[1,2]thiazepino[5,4,3-cd]indole-8-carboxamide 2,2-dioxide (1:1)]",IC50,Cathepsin D,≥ 30 nM
same,inhibition (Asp2),Asp2,2 nM-10 μM
"CCn1cc2c3c(cc(C(=O)N[C@@H](Cc4ccccc4)[C@H](O)CNCC=C(C)C)cc31)N(C)S(=O)(=O)CC2.O=CO [Example E58, Formic acid - 6-Ethyl-N-[(1S, 2R)-2-hydroxy-3-[(3-methyl-2-buten-1-yl)amino]-1-(phenylmethyl)propyl]-1-methyl-1,3,4,6-tetrahydro[1,2]thiazepino[5,4,3-cd]indole-8-carboxamide 2,2-dioxide (1:1)]",IC50,Cathepsin D,≥ 30 nM
same,inhibition (Asp2),Asp2,2 nM-10 μM
"CCn1cc2c3c(cc(C(=O)N[C@@H](Cc4ccccc4)[C@H](O)CNC4CCC(C)CC4)cc31)N(C)S(=O)(=O)CC2.O=CO (stereo partly drawn) [Example E23, Formic acid - 6-Ethyl-N-[(1S, 2R)-2-hydroxy-3-[(4-methylcyclohexyl)amino]-1-(phenylmethyl)propyl]-1-methyl-1,3,4,6-tetrahydro[1,2]thiazepino[5,4,3-cd]indole-8-carboxamide 2,2-dioxide (1:1)]",IC50,Cathepsin D,≥ 30 nM
same,inhibition (Asp2),Asp2,2 nM-10 μM
CCn1cc2c3c(cc(C(=O)N[C@@H](Cc4ccccc4)[C@H](O)CNC4CCCCC4(C)C)cc31)N(C)S(=O)(=O)CC2.O=CO (some centres unmarked) [Example E38],IC50,Cathepsin D,≥ 30 nM
same,inhibition (Asp2),Asp2,2 nM-10 μM
"CCn1cc2c3c(cc(C(=O)N[C@@H](Cc4ccccc4)[C@H](O)CNC4CCCCC4)cc31)N(C)S(=O)(=O)CC2.O=CO [Example E20, Formic acid - N-[(1S, 2R)-3-(Cyclohexylamino)-2-hydroxy-1-(phenylmethyl)propyl]-6-ethyl-1-methyl-1,3,4,6-tetrahydro[1,2]thiazepino[5,4,3-cd]indole-8-carboxamide 2,2-dioxide (1:1)]",IC50,Cathepsin D,≥ 30 nM
same,inhibition (Asp2),Asp2,2 nM-10 μM
CCn1cc2c3c(cc(C(=O)N[C@@H](Cc4ccccc4)[C@H](O)CNCc4cccc(C)n4)cc31)N(C)S(=O)(=O)CC2.O=CO [Example E78],IC50,Cathepsin D,≥ 30 nM
same,inhibition (Asp2),Asp2,2 nM-10 μM
"CCn1cc2c3c(cc(C(=O)N[C@@H](Cc4ccccc4)[C@H](O)CNc4cccc(C)c4)cc31)N(C)S(=O)(=O)CC2.O=CO [Example E55, Formic acid - 6-Ethyl-N-[(1S, 2R)-2-hydroxy-3-[(3-methylphenyl)amino]-1-(phenylmethyl)propyl]-1-methyl-1,3,4,6-tetrahydro[1,2]thiazepino[5,4,3-cd]indole-8-carboxamide 2,2-dioxide (1:1)]",IC50,Cathepsin D,≥ 30 nM
same,inhibition (Asp2),Asp2,2 nM-10 μM
"CCn1cc2c3c(cc(C(=O)N[C@@H](Cc4ccccc4)[C@H](O)CNC4(C)CC4)cc31)N(C)S(=O)(=O)CC2.O=CO [Example E87, Formic acid - 6-Ethyl-N-[(1S, 2R)-2-hydroxy-3-[(1-methylcyclopropyl)amino]-1-(phenylmethyl)propyl]-1-methyl-1,3,4,6-tetrahydro[1,2]thiazepino[5,4,3-cd]indole-8-carboxamide 2,2-dioxide (1:1)]",IC50,Cathepsin D,≥ 30 nM
same,inhibition (Asp2),Asp2,2 nM-10 μM
"CCN1c2cc(C(=O)N[C@@H](Cc3ccccc3)[C@H](O)CNC3CCOCC3)cc3c2c(cn3CC)C=CS1(=O)=O [Example E1, 1,6-Diethyl-N-[(1S,2R)-2-hydroxy-1-(phenylmethyl)-3-(tetrahydro-2H-pyran-4-ylamino)propyl]-1,6-dihydro[1,2]thiazepino[5,4,3-cd]indole-8-carboxamide 2,2-dioxide]",IC50,Cathepsin D,≥ 30 nM
same,inhibition (Asp2),Asp2,2 nM-10 μM
"CCCCNC[C@@H](O)[C@H](Cc1ccccc1)NC(=O)c1cc2c3c(cn(CC)c3c1)CCS(=O)(=O)N2C.O=CO [Example E75, Formic acid - N-[(1S, 2R)-3-(Butylamino)-2-hydroxy-1-(phenylmethyl)propyl]-6-ethyl-1-methyl-1,3,4,6-tetrahydro[1,2]thiazepino[5,4,3-cd]indole-8-carboxamide 2,2-dioxide (1:1)]",IC50,Cathepsin D,≥ 30 nM
same,inhibition (Asp2),Asp2,2 nM-10 μM
"CCn1cc2c3c(cc(C(=O)N[C@@H](Cc4ccccc4)[C@H](O)CNc4ccc(C)cc4C)cc31)N(C)S(=O)(=O)CC2.O=CO [Example E71, Formic acid - N-[(1S, 2R)-3-[(2,4-Dimethylphenyl)amino]-2-hydroxy-1-(phenylmethyl)propyl]-6-ethyl-1-methyl-1,3,4,6-tetrahydro[1,2]thiazepino[5,4,3-cd]indole-8-carboxamide 2,2-dioxide (1:1)]",IC50,Cathepsin D,≥ 30 nM
same,inhibition (Asp2),Asp2,2 nM-10 μM
"C=C(C)CNC[C@@H](O)[C@H](Cc1ccccc1)NC(=O)c1cc2c3c(cn(CC)c3c1)CCS(=O)(=O)N2C.O=CO [Example E41, Formic acid - 6-Ethyl-N-[(1S, 2R)-2-hydroxy-3-[(2-methyl-2-propen-1-yl)amino]-1-(phenylmethyl)propyl]-1-methyl-1,3,4,6-tetrahydro[1,2]thiazepino[5,4,3-cd]indole-8-carboxamide 2,2-dioxide (1:1)]",IC50,Cathepsin D,≥ 30 nM
same,inhibition (Asp2),Asp2,2 nM-10 μM
"CC#CCNC[C@@H](O)[C@H](Cc1ccccc1)NC(=O)c1cc2c3c(cn(CC)c3c1)CCS(=O)(=O)N2C.O=CO [Example E73, Formic acid - N-[(1S, 2R)-3-(2-Butyn-1-ylamino)-2-hydroxy-1-(phenylmethyl)propyl]-6-ethyl-1-methyl-1,3,4,6-tetrahydro[1,2]thiazepino[5,4,3-cd]indole-8-carboxamide 2,2-dioxide (1:1)]",IC50,Cathepsin D,≥ 30 nM
same,inhibition (Asp2),Asp2,2 nM-10 μM
"CCn1cc2c3c(cc(C(=O)N[C@@H](Cc4ccccc4)[C@H](O)CNCCOCC(F)(F)F)cc31)N(C)S(=O)(=O)CC2.O=CO [Example E53, Formic acid - 6-Ethyl-N-[(1S, 2R)-2-hydroxy-1-(phenylmethyl)-3-({2-[(2,2,2-trifluoroethyl)oxy]ethyl}amino)propyl]-1-methyl-1,3,4,6-tetrahydro[1,2]thiazepino[5,4,3-cd]indole-8-carboxamide 2,2-dioxide (1:1)]",IC50,Cathepsin D,≥ 30 nM
same,inhibition (Asp2),Asp2,2 nM-10 μM
CCc1cc(CNC[C@@H](O)[C@H](Cc2ccccc2)NC(=O)c2cc3c4c(cn(CC)c4c2)CCS(=O)(=O)N3C)cs1.O=CO [Example E15],IC50,Cathepsin D,≥ 30 nM
same,inhibition (Asp2),Asp2,2 nM-10 μM
"CC(C)n1cc2c3c(cc(C(=O)N[C@@H](Cc4ccccc4)[C@H](O)CNC4CCCCC4)cc31)N(C)S(=O)(=O)CC2.O=CO [Example E67, Formic acid - N-[(1S, 2R)-3-(Cyclohexylamino)-2-hydroxy-1-(phenylmethyl)propyl]-1-methyl-6-(1-methylethyl)-1,3,4,6-tetrahydro[1,2]thiazepino[5,4,3-cd]indole-8-carboxamide 2,2-dioxide (1:1)]",IC50,Cathepsin D,≥ 30 nM
same,inhibition (Asp2),Asp2,2 nM-10 μM
"CCCn1cc2c3c(cc(C(=O)N[C@@H](Cc4ccccc4)[C@H](O)CNC4CCCCC4)cc31)N(C)S(=O)(=O)CC2.O=CO [Example E66, Formic acid - N-[(1S, 2R)-3-(Cyclohexylamino)-2-hydroxy-1-(phenylmethyl)propyl]-1-methyl-6-propyl-1,3,4,6-tetrahydro[1,2]thiazepino[5,4,3-cd]indole-8-carboxamide 2,2-dioxide (1:1)]",IC50,Cathepsin D,≥ 30 nM
same,inhibition (Asp2),Asp2,2 nM-10 μM
